Some of the results follow.
compound: Cc1cc(ccc1-c1ccccc1)C(=O)N1CCCN(CC1)C(=O)CCl [compound 10]; test: probe-labelled cysteine peptide fold change vs DMSO (competition) (log2 fold change); higher = less target engagement (more negative = stronger competition); conditions: 50 µM; THP-1; incubation time: 4 h
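Also: competitive profiling in live THP-1 cells: cysteine peptides tagged with an iodoacetamide desthiobiotin (IA-DTB) probe, intensity after compound treatment relative to DMSO-treated cells.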

By UniProt entry, the sequences of proteins in these tests, tags left out. Where a name states a change or a piece, a line headed by the entry shows the natural chain unless it says otherwise.
UniProt Q9Y5M8: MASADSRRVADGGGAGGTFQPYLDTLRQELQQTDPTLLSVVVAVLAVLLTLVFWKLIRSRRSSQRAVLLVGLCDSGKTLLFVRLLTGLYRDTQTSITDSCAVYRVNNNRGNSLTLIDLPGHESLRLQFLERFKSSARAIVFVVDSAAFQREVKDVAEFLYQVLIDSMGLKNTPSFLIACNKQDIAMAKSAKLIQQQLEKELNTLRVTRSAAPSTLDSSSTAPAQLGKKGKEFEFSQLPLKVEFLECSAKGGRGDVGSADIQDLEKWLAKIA
UniProt O15270: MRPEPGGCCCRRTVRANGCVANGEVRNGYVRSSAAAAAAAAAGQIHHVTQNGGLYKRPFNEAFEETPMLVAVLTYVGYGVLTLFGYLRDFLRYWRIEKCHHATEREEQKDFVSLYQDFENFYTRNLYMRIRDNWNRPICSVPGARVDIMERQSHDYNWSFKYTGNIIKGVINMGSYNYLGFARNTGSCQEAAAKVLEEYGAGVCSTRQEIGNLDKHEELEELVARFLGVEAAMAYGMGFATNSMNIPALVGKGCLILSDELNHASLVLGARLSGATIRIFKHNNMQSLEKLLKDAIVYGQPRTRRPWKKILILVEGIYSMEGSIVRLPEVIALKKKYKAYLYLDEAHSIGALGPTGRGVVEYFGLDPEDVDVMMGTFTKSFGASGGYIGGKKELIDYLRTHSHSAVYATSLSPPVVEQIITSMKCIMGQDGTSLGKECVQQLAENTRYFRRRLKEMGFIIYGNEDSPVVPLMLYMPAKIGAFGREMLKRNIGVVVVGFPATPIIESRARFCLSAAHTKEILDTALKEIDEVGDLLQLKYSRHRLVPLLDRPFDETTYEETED
UniProt Q92673: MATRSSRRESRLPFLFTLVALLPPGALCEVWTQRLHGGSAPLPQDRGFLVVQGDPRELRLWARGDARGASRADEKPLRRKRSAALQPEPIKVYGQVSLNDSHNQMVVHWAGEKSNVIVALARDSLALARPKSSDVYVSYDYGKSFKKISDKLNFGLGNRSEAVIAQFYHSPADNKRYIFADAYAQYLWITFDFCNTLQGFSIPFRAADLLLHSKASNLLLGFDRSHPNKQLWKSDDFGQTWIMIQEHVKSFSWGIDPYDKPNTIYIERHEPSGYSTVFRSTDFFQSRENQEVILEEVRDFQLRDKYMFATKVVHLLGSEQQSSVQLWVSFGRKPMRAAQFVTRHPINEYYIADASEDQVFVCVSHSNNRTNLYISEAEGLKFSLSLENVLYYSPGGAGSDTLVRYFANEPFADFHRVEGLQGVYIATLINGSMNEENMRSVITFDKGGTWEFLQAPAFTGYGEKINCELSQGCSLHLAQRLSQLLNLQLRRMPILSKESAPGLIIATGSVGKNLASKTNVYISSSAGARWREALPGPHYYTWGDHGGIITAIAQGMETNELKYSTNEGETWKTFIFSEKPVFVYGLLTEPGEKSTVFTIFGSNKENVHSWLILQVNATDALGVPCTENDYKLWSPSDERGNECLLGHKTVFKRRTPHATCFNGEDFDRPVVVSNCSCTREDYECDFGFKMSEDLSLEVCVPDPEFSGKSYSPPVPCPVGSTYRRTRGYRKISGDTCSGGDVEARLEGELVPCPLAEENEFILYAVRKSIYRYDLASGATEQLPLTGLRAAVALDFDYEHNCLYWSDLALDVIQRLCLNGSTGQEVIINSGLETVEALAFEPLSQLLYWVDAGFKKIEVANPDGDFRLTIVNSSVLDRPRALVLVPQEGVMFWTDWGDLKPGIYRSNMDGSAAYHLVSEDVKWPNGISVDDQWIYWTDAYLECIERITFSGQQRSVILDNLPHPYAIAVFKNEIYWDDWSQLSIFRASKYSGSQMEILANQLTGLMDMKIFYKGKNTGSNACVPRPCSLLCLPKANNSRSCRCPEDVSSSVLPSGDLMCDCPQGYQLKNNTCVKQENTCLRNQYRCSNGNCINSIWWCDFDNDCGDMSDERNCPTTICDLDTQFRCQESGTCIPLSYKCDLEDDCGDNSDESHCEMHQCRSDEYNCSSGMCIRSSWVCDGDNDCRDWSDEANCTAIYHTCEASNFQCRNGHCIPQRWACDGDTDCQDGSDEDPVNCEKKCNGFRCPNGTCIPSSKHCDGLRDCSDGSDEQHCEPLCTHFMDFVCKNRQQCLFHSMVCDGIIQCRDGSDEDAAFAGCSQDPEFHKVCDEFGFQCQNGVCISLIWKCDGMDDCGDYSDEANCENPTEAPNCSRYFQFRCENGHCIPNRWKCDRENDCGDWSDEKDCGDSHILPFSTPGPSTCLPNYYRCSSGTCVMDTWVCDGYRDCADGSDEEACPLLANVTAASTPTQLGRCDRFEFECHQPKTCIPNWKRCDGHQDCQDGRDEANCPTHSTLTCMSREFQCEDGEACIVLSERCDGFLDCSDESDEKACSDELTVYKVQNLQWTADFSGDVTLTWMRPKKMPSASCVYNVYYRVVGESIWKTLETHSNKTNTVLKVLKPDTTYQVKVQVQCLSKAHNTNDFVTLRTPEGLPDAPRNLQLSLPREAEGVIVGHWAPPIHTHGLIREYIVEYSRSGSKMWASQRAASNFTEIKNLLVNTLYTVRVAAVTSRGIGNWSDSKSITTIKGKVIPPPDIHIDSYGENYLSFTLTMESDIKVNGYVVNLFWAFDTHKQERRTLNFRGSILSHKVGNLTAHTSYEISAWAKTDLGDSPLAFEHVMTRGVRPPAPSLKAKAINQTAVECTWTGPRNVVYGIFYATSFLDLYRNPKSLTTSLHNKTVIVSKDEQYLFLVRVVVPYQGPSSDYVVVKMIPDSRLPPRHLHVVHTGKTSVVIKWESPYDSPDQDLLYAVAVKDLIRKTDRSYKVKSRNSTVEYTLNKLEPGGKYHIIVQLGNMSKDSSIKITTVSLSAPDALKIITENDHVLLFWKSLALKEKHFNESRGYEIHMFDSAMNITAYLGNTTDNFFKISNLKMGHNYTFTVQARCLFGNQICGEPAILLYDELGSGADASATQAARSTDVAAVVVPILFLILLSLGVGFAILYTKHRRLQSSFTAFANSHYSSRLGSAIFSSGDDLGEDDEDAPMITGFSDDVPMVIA
UniProt Q5M775: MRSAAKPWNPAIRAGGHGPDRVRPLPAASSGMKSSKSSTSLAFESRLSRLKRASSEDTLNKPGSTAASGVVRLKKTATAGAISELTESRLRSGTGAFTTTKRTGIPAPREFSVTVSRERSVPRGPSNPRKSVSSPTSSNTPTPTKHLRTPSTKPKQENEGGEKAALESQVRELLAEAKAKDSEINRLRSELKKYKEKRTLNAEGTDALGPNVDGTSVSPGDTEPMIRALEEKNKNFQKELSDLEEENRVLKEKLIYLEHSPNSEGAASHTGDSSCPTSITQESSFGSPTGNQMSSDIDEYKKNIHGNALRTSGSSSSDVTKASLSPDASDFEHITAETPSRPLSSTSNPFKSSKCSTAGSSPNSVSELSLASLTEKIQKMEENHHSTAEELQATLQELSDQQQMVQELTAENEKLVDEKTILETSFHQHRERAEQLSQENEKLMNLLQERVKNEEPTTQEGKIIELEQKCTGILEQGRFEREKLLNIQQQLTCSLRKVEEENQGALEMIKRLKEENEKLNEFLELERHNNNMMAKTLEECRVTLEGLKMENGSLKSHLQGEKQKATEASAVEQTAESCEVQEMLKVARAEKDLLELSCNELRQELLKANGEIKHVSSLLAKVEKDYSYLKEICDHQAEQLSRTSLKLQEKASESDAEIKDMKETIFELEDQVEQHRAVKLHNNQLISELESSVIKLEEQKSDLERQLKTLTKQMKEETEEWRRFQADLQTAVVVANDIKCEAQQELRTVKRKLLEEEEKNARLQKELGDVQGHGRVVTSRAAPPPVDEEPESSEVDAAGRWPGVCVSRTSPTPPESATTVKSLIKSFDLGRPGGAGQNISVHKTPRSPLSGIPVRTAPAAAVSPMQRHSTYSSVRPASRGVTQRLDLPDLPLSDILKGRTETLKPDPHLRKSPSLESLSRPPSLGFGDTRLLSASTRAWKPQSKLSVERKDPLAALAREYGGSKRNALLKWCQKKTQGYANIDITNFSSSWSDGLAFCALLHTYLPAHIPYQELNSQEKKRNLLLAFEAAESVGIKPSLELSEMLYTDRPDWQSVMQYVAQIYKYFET
UniProt Q01082, whole entry, looked up: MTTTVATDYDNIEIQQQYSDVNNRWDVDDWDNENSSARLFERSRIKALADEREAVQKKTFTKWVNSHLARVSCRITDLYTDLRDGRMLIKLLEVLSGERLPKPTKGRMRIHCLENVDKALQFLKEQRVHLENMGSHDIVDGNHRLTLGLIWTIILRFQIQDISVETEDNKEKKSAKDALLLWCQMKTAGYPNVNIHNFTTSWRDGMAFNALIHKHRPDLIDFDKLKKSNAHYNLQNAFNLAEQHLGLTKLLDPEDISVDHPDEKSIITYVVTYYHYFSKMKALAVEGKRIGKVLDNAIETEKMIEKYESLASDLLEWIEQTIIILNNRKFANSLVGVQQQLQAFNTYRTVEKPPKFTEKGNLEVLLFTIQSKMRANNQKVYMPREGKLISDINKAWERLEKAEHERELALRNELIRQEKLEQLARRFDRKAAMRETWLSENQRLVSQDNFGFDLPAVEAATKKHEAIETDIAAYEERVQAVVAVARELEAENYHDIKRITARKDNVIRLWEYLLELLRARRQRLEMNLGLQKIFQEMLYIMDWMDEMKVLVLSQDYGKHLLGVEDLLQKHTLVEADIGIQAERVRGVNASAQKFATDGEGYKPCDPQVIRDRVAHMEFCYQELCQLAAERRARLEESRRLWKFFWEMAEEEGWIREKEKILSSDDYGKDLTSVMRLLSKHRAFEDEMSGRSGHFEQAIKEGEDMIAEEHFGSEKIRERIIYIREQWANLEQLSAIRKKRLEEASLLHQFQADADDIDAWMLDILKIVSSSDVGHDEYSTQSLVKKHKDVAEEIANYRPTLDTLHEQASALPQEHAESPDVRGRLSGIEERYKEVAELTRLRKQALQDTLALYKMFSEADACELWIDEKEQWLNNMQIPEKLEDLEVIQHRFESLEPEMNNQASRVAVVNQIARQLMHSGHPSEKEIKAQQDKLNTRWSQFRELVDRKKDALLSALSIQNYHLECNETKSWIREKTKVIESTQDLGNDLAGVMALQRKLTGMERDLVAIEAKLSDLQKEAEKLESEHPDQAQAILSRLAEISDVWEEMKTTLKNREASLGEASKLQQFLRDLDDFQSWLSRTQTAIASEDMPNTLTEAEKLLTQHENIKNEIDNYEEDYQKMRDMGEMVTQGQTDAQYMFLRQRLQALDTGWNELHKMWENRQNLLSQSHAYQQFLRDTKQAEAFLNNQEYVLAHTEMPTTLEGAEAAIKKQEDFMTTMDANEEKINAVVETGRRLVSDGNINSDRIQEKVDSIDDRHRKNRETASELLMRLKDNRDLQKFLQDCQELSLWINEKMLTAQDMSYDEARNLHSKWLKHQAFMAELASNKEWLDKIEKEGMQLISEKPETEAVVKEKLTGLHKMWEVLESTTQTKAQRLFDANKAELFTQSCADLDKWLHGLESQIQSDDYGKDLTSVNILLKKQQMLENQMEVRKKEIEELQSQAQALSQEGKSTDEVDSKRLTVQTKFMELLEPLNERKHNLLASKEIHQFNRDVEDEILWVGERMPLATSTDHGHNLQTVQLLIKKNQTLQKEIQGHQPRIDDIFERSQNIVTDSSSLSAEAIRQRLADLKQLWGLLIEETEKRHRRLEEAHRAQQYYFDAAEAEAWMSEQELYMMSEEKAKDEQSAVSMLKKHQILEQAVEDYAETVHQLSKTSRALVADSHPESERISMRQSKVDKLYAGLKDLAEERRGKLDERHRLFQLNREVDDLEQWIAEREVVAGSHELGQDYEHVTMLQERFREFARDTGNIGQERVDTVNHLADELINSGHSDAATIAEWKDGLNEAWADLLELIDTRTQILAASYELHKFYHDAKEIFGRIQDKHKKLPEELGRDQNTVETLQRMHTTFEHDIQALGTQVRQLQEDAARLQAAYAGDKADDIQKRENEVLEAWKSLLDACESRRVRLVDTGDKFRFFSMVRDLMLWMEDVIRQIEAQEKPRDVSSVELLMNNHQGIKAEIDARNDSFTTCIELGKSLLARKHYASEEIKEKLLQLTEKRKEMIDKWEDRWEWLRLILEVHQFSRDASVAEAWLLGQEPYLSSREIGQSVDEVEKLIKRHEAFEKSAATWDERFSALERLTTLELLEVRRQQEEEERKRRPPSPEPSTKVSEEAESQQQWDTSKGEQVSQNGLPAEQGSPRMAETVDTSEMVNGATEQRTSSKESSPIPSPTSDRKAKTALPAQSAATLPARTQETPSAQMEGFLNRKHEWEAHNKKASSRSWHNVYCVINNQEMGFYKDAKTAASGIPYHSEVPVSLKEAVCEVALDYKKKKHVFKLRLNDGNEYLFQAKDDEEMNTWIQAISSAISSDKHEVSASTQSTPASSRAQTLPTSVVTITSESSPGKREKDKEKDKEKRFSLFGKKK

Row | Target | probe-labelled cysteine peptide fold change
1 | SPTAN1_Q13813_1444_MMLDQCLELQLFHR (UniProt Q13813) | 0.12
2 | SNX14_Q9Y5W7_732_GQHLEPFIMNFINSCESPKPK (UniProt Q9Y5W7) | -0.0904
3 | SRPRB_Q9Y5M8_100_DTQTSITDSCAVYR (UniProt Q9Y5M8) | 0.338
4 | SPTLC2_O15270_438_ECVQQLAENTR (UniProt O15270) | 0.123
5 | SNX27_Q96L92_432+434_TCEGYNEIIFPHCACDSR (UniProt Q96L92) | 0.504
6 | SPEN_Q96T58_877_NRLELMPCVVLTR (UniProt Q96T58) | -0.0526
7 | SRM_P19623_209_EDGVLCCQGECQWLHLDLIK (UniProt P19623) | 0.837
8 | SNX3_O60493_140_CLHMFLQDEIIDKSYTPSKIRHA (UniProt O60493) | -0.219
9 | SORL1_Q92673_1376_CENGHCIPNR (UniProt Q92673) | -5.81e-05
10 | SP3_Q02447_686_KFVCPECSK (UniProt Q02447) | 0.137
11 | SORL1_Q92673_1484_TCIPNWK (UniProt Q92673) | -0.395
12 | SREK1_Q8WXA9-2_96_ALIVVPCAEGK (UniProt Q8WXA9) | 0.0383
13 | SRM_P19623_71_TYGNVLVLDGVIQCTERDEFSYQEMIANLPLCSHPNPR (UniProt P19623) | 0.323
14 | SOGA1_O94964_499_KADAVLGCSVK (UniProt O94964) | -0.378
15 | SNX14_Q9Y5W7_593_IPVFCIDVER (UniProt Q9Y5W7) | 0.701
16 | SPECC1_Q5M775_578_ATEASAVEQTAESCEVQEMLK (UniProt Q5M775) | -0.22
17 | SP140L_Q9H930_191_KESDQACGK (UniProt Q9H930) | -0.243
18 | SPTAN1_Q13813_956_EQAQSCR (UniProt Q13813) | -0.0854
19 | SOWAHD_A6NJG2_109_LCLEPR (UniProt A6NJG2) | 0.267
20 | SNRPD3_P62318_41_LIEAEDNMNCQMSNITVTYRDGR (UniProt P62318) | -0.54

Row | Target | probe-labelled cysteine peptide fold change
21 | SRPK2_P78362_320_IIEENITSAAPSNDQDGEYCPEVK (UniProt P78362) | 0.0113
22 | SPECC1_Q5M775_633_EICDHQAEQLSR (UniProt Q5M775) | 0.112
23 | SPATA2_Q9UM82_41_QRPGSDECLR (UniProt Q9UM82) | -1.35
24 | SRM_P19623_123_HPSVESVVQCEIDEDVIQVSK (UniProt P19623) | 0.148
25 | SRP19_P09132_94_QEDGSLCLVQFPSRK (UniProt P09132) | -0.0819
26 | SPART_Q8N0X7_562_CIVNNVSAETVQTVR (UniProt Q8N0X7) | -0.538
27 | SPTLC1_O15269_100_ECINFASFNFLGLLDNPR (UniProt O15269) | -0.00276
28 | SPTBN1_Q01082_2227_SWHNVYCVINNQEMGFYK (UniProt Q01082) | -0.0578
29 | SRGAP2_O75044_486_TDCSLAR (UniProt O75044) | -0.689
30 | SPTLC2_O15270_511_FCLSAAHTK (UniProt O15270) | 0.0538
31 | SPTBN1_Q01082_1389_AELFTQSCADLDK (UniProt Q01082) | -0.194
32 | SPATA5L1_Q9BVQ7_685_TMPIGPDVSLENLAAETCFFSGADLR (UniProt Q9BVQ7) | 0.107
33 | SNX2_O60749_332_LHVSVEALVCHR (UniProt O60749) | -0.341
34 | SPOUT1_Q5T280_10_RPCGPGEHGQR (UniProt Q5T280) | 0.0479
35 | SRD5A3_Q9H8P0_238_AGVVIHCNHR (UniProt Q9H8P0) | -0.282
36 | SNX9_Q9Y5X1_502_GFLGCFPDIIGTHK (UniProt Q9Y5X1) | 0.0742
37 | SPAG9_O60271_1210_VTPGTFIPYCSMAHAQLCFHGHR (UniProt O60271) | 1.04
38 | SP100_P23497_16_LNECISPVANEMNHLPAHSHDLQR (UniProt P23497) | -0.732
39 | SQSTM1_Q13501_131_NMVHPNVICDGCNGPVVGTR (UniProt Q13501) | -0.625
40 | SORD_Q00796_179_VLVCGAGPIGMVTLLVAK (UniProt Q00796) | -1.77
